Results reported in the supplement of paper PMC3334620.
Whole data set: some 33,000 sequences, median “E-score (-0.5 to 0.5)” near -0.0014, cut for the highest 2% near 0.25. The list shows a part of the results.

molecular target: T1, Cad1 (UniProt P24813); experiment: PBM E-score (8-mer binding enrichment) (E-score (-0.5 to 0.5)); higher = stronger / more preferred TF binding; details: protein concentration: 100 nM; construct: GST-full length
T1 sequence: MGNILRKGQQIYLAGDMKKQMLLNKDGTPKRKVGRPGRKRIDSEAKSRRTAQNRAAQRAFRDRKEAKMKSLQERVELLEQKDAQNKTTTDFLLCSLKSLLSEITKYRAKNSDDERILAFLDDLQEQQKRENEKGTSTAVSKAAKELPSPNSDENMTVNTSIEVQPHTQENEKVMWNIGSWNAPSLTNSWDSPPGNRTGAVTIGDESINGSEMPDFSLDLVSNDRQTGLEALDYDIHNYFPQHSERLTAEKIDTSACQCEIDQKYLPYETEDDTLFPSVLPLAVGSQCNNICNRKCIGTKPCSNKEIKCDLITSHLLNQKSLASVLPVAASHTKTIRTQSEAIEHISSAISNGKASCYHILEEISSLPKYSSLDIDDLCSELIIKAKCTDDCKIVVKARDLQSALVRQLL
Summary of the method: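 PURExpress in vitro transcription/translation supplied GST-tagged yeast transcription factors, either full-length or DNA-binding domain. Applied at about 100-200 nM to universal all-10-mer Agilent arrays double-stranded by primer extension, the bound protein was detected with fluorescent anti-GST. E-scores, modified Wilcoxon-Mann-Whitney statistics, were given by the Universal PBM Analysis Suite to ungapped eight-base words pooled with their reverse complements after masliner normalisation.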

Row | Sequence | PBM E-score
1 | GCATCGGA | 0.112
2 | CGGATTCA | 0.152
3 | GGCCTTGA | 0.0013
4 | TCTTTCAA | 0.00752
5 | CTTTGACC | -0.00588
6 | AGTCTTTG | -0.0888
7 | GTAGTGGA | 0.0378
8 | ACCACTCG | 0.248
9 | CCCTCCTC | -0.238
10 | ACCCTAGC | -0.0846
11 | ATACATAC | -0.195
12 | ATAGCAGC | -0.071
13 | AAATAAGT | 0.102
14 | GATCGAAC | -0.0289
15 | CAAGTTTA | 0.0121
16 | GCGGTTAC | 0.141
17 | CCCAGTGC | -0.124
18 | CGAACGAA | 0.129
19 | AGCTCTCA | -0.00832
20 | GTTTTGCA | 0.107
21 | AGTTTCTG | 0.0801
22 | GAGCTTCA | 0.0986
23 | ACGAATTG | -0.035
24 | GTTTAGTA | 0.148
25 | AAGCTCTG | -0.164

Part of the list above, with each value named.
GGCCTTGA
  PBM E-score: 0.0013
GTAGTGGA
  PBM E-score: 0.0378
ATAGCAGC
  PBM E-score: -0.071
AGCTCTCA
  PBM E-score: -0.00832

Next entries:

Row | Sequence | PBM E-score
26 | CTAAGCAA | 0.0503
27 | CCTTTCTC | -0.228
28 | CGTACCGA | -0.0922
29 | CAGTCATC | -0.119
30 | CCACCTGC | -0.00282
31 | ATATATTC | 0.199
32 | ACAAACAA | 0.176
33 | CTGCATCC | 0.153
34 | GTCCTTAA | 0.195
35 | AATCCGGC | 0.104
36 | CCTAATTA | 0.156
37 | CCCCCATC | -0.259
38 | TCCGTCCA | -0.0226
39 | ATAGTCTA | -0.1
40 | TAGGTCAA | 0.0823
41 | CGTAATAG | 0.0595
42 | CGTCATGA | 0.0268
43 | ATACCGAG | 0.00129
44 | ATTTGCCC | 0.0698
45 | ACTGGTAC | -0.0677
46 | CTCATTTC | -0.0186
47 | CGTGAACA | 0.12
48 | AATTAGGC | 0.16
49 | ATATGTGC | 0.0122
50 | ACCCGAAA | 0.0537

Row | Sequence | PBM E-score
51 | ACGAGGTC | 0.0145
52 | GGGTATTA | 0.0451
53 | GGCCGTAC | 0.0841
54 | CATAGAGG | 0.0334
55 | GCGGGTAA | -0.122
56 | AGCATTAT | 0.134
57 | GGCGTAAA | 0.0237
58 | ATTGAGAA | 0.14
59 | ACCGTCGA | 0.0162
60 | CGTCCATC | 0.0535
61 | CGAAGATC | 0.0255
62 | AGTGGTAA | -0.01
63 | ACCTGTCG | 0.014
64 | CGTCGAAG | -0.0148
65 | CTAAATAC | 0.0286
66 | CTTGATGA | 0.12
67 | TGACTAAA | 0.232
68 | AAAAGGCT | -0.137
69 | ACTAGGTA | 0.125
70 | CCGACATA | 0.0533
71 | TGGGCCCA | 0.00117
72 | TAACCAAA | 0.088
73 | GTACACAC | 0.132
74 | ACTACCTG | 0.0564
75 | GAGTGGCA | -0.0542

Row | Sequence | PBM E-score
76 | AGTCTCAA | -0.169
77 | CAGCCACG | 0.0309
78 | ACAAGGCA | -0.071
79 | CCTTGGAA | 0.00444
80 | GTGGCGGA | -0.2
81 | AGGATACA | 0.0144
82 | AAACTCTT | -0.205
83 | GACAAGGA | 0.049
84 | CTAGTGCC | -0.131
85 | CCTGAGCA | 0.0777
86 | ACTACCAC | -0.0934
87 | AGGGATTA | 0.118
88 | AGAAATCC | 0.101
89 | AATCCGTC | 0.0433
90 | CGAAGAAG | 0.027
91 | GAACGGGA | -0.239
92 | ACCCAAGC | -0.189
93 | GCATGAAA | 0.14
94 | CGCCCTGA | 0.0238
95 | CTGGTATC | 0.0505
96 | ACGATCTG | -0.0324
97 | AGCAGGGC | -0.0265
98 | GCACCGCC | -0.315
99 | AAGACATT | -0.147
100 | GATCGGTA | 0.118

7 records picked at random from the list so far:
Row | Sequence | PBM E-score
99 | AAGACATT | -0.147
93 | GCATGAAA | 0.14
85 | CCTGAGCA | 0.0777
78 | ACAAGGCA | -0.071
83 | GACAAGGA | 0.049
100 | GATCGGTA | 0.118
81 | AGGATACA | 0.0144

More records.

Row | Sequence | PBM E-score
101 | ACATGGAG | -0.202
102 | ATAATTAA | 0.323
103 | AGCATCAC | -0.0601
104 | ACAAGTGT | 0.0643
105 | GAGCTCCA | 0.0585
106 | AACTACAT | 0.0419
107 | ACTTCTAT | -0.0199
108 | CCTCCAGG | -0.262
109 | CACAAACC | -0.161
110 | ATGCACGA | -0.0577
111 | CTCAGGAC | 0.0748
112 | GACCGCAA | -0.0111
113 | GCAACCTA | -0.0451
114 | GCGGTTCA | -0.0678
115 | CCCCCAAG | -0.289
116 | AGCCGAAC | 0.0145
117 | CCAGCACG | -0.0818
118 | ACATTCCT | -0.0818
119 | CATCTCTA | -0.054
120 | AAGAACCG | 0.104
121 | ACGAACAG | -0.0601
122 | GCCAAAAA | 0.122
123 | ATAAACAC | 0.15
124 | CGCCGATC | -0.00182
125 | TGGGACAA | 0.00876

Row | Sequence | PBM E-score
126 | CGGTCGAA | -0.0909
127 | GCATTAGC | -0.0978
128 | CAGTCTGA | 0.0314
129 | GGACCTCC | -0.175
130 | ATTCTCCC | 0.115
131 | AATAAGGC | 0.0576
132 | GAGAAATA | 0.12
133 | ATCCAGAA | -0.00538
134 | ATCGCCTA | -0.124
135 | GGGTACCA | -0.211
136 | ACAGAGTA | -0.117
137 | ATTAAGAA | 0.127
138 | CGGATTGC | 0.151
139 | CACTTCAC | -0.11
140 | AGCGCAAC | 0.0949
141 | TCAAACAA | 0.11
142 | ATGTTCTG | -0.094
143 | CCATTCCG | -0.119
144 | AAGTCAAG | -0.179
145 | CTTTGAAC | -0.0585
146 | GCCTTTAC | -0.0688
147 | AATACACT | 0.158
148 | GGTATTGA | 0.0579
149 | AGTGCTTA | 0.152
150 | CTTGCCAC | -0.096

Row | Sequence | PBM E-score
151 | GTTGGGCA | -0.00633
152 | AGTGGGCC | -0.28
153 | GGTCTATA | -0.0454
154 | CTCCTATC | -0.0871
155 | ATGCGGGA | 0.0554
156 | ATTTTAAA | 0.207
157 | GTGTAAAA | 0.0903
158 | AAGTAGGT | -0.0979
159 | CCGGGGGC | -0.406
160 | ACAGAGCT | -0.22
161 | CCGTATAA | 0.138
162 | CAGTCAGA | -0.0538
163 | TACCTTAA | -0.113
164 | ACGTTTTA | 0.115
165 | GACTATAC | 0.0805
166 | CACCCCAA | -0.0609
167 | CCCGTTTA | 0.158
168 | ACAAATAG | 0.182
169 | AAATCGTT | 0.112
170 | CCCTGCCA | -0.133
171 | CCAGGCAG | -0.221
172 | CCCAACCG | -0.169
